Among the data in doi:10.1101/2025.06.19.657327 are binding values, retold here.

The target in this assay is T1, Satb1 (Special AT-rich Binding Protein 1) (mouse (endogenous in thymocytes)) (UniProt Q60611).
T1 sequence: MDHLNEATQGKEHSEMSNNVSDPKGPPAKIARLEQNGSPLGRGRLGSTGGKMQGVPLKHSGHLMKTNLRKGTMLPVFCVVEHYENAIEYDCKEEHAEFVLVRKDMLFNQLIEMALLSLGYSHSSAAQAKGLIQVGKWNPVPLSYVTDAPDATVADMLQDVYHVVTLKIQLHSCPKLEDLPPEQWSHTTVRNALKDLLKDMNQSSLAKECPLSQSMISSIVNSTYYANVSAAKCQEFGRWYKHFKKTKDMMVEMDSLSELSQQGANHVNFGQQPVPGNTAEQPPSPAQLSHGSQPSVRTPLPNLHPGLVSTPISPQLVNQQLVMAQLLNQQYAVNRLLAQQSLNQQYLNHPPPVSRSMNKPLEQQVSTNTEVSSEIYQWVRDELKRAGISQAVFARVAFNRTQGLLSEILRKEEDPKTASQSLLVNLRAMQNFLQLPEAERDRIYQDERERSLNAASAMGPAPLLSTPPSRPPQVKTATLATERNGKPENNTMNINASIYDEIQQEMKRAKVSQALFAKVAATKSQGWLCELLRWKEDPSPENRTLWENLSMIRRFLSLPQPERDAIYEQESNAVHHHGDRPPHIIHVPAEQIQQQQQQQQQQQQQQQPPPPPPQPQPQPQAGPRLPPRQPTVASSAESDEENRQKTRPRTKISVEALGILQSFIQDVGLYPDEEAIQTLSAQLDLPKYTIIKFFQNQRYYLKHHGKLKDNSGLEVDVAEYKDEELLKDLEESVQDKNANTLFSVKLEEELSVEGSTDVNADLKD
Nature of the assay: affinity purification with mass spectrometry.

Results are given in words; binding and its absence hold for the method and conditions named. Binding seen in cells or lysates may run through a third protein. Here binding means that the protein was enriched with, or labelled near, the bait; the list need not be complete.

B1: Smc1a (cohesin subunit) (protein, UniProt Q9CU62 1-1233)
chain: MGFLKLIEIENFKSYKGRQIIGPFQRFTAIIGPNGSGKSNLMDAISFVLGEKTSNLRVKTLRDLIHGAPVGKPAANRAFVSMVYSEEGAEDRTFARVIVGGSSEYKINNKVVQLHEYSEELEKLGILIKARNFLVFQGAVESIAMKNPKERTALFEEISRSGELAQEYDKRKKEMVKAEEDTQFNYHRKKNIAAERKEAKQEKEEADRYQRLKDEVVRAQVQLQLFKLYHNEVEIEKLNKELASKNKEIEKDKKRMDKVEDELKEKKKELGKMMREQQQIEKEIKEKDSELNQKRPQYIKAKENTSHKIKKLEAAKKSLQNAQKHYKKRKGDMDELEKEMLSVEKARQEFEERMEEESQSQGRDLTLEENQVKKYHRLKEEASKRAATLAQELEKFNRDQKADQDRLDLEERKKVETEAKIKQKLREIEENQKRIEKLEEYITTSKQSLEEQKKLEGELTEEVEMAKRRIDEINKELNQVMEQLGDARIDRQESSRQQRKAEIMESIKRLYPGSVYGRLIDLCQPTQKKYQIAVTKVLGKNMDAIIVDSEKTGRDCIQYIKEQRGEPETFLPLDYLEVKPTDEKLRELKGAKLVIDVIRYEPPHIKKALQYACGNALVCDNVEDARRIAFGGHQRHKTVALDGTLFQKSGVISGGASDLKAKARRWDEKAVDKLKEKKERLTEELKEQMKAKRKEAELRQVQSQAHGLQMRLKYSQSDLEQTKTRHLALNLQEKSKLESELANFGPRINDIKRIIQSREREMKDLKEKMNQVEDEVFEEFCREIGVRNIREFEEEKVKRQNEIAKKRLEFENQKTRLGIQLDFEKNQLKEDQDKVHMWEQTVKKDENEIEKLKKEEQRHMKIIDETMAQLQDLKNQHLAKKSEVNDKNHEMEEIRKKLGGANKEMTHLQKEVTAIETKLEQKRSDRHNLLQACKMQDIKLPLSKGTMDDISQEEGSSQGEESVSGSQRTSSIYAREALIEIDYGDLCEDLKDAQAEEEIKQEMNTLQQKLNEQQSVLQRIAAPNMKAMEKLESVRDKFQETSDEFEAARKRAKKAKQAFEQIKKERFDRFNACFESVATNIDEIYKALSRNSSAQAFLGPENPEEPYLDGINYNCVAPGKRFRPMDNLSGGEKTVAALALLFAIHSYKPAPFFVLDEIDAALDNTNIGKVANYIKEQSTCNFQAIVISLKEEFYTKAESLIGVYPEQGDCVISKVLTFDLTKYPDANPNPNEQ
B1: the binding entry was “binds”.
